Drawing on patent US4508711A (American Cyanamid Company, priority 1984, dated 1985), this text covers crude mass and isolated yield for three substances.

HELM strings list residues between dots; [ac] is acetyl, [am] amide, other brackets name non-standard units.

Series [1] in a line: general procedure: Boc solid-phase peptide synthesis; Boc-D-Trp-Merrifield resin (1% cross-linked). As to conditions: whole synthesis.
A short description of series [2]: general procedure: Boc solid-phase peptide synthesis; Boc-Phe-Merrifield resin (1% cross-linked). As to conditions: whole synthesis, overall, scale 1 mmole.

In series [1] (scale 0.5 mmol), “H-Lys(Boc)-Thr(Bzl)-Ahep-Phe-D-Trp-NHNH2” yielded a crude mass of 0.50 g. As for “PEPTIDE1{[Ahep].F.[dW].K.T}$PEPTIDE1,PEPTIDE1,1:R1-5:R2$$$V2.0”, the isolated yield in series [2] is recorded as 15%. In series [1] (scale of the general procedure 0.5 mmol), “PEPTIDE1{[Ahep].F.[dW].K.[Thr(Bzl)]}$PEPTIDE1,PEPTIDE1,1:R1-5:R2$$$V2.0” showed an isolated yield of 33%.
